Data source: PubChem BioAssay AID493246 (Drosophila RNAi Screening Center, 2011)
Aim: 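Identify essential fly genes by loss of cell viability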 (primary screen). Cells: Drosophila Kc and S2R+ cells. Reagents: long dsRNA against Drosophila genes. Detection: 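Cell number per well after knock-down, printed as raw plate values; calls were based on per-plate z-scores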. Reading the numbers: Kc cell number and S2R+ cell number: higher = more cells remaining. Rule for the call: 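Counted as a hit if cell number falls by a z-score of at least 3 within its plate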.
The deposit covers about 21,000 reagents; this is a random part of those that have a named target and a result. Of all reagents, 429 (2%) were called active. 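Values are raw and not normalised between plates; calls rest on per-plate z-scores that were not deposited.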 Reagents against one gene are numbered here. Names joined by + are all predicted targets of the reagent. Not stated in the record: the amount of reagent, the time to read-out.

Gene,dsRNA no.,"Kc cell number, rep 1","Kc cell number, rep 2","S2R+ cell number, rep 1","S2R+ cell number, rep 2",activity call
Esp (Epidermal stripes and patches),1,1.58e6,1.54e6,1.03e6,1.13e6,inactive
lectin-24Db,1,1.30e6,1.44e6,1.24e6,1.24e6,inactive
CG6984,1,1.11e6,1.18e6,6.24e5,5.49e5,active
CG34296,1,1.27e6,1.39e6,1.10e6,1.19e6,inactive
CG42260,1,5.49e5,,8.30e5,,inactive
CG42260,2,1.51e6,1.59e6,1.23e6,1.36e6,inactive
CG42260,3,1.66e6,1.72e6,1.23e6,1.35e6,inactive
NTPase,1,1.25e6,1.32e6,6.34e5,7.08e5,inactive
Tailor,1,1.37e6,1.49e6,1.22e6,1.35e6,inactive
Pak (p21-activated kinase),1,1.61e6,1.61e6,1.22e6,1.23e6,inactive
CG1889 + CG43386,1,1.62e6,1.49e6,1.09e6,1.22e6,inactive
Sou (Souji),1,1.58e6,1.77e6,1.39e6,3.97e5,inactive
CG13558,1,1.52e6,1.54e6,1.27e6,1.38e6,inactive
rho-7 (rhomboid-7),1,1.66e6,1.64e6,1.34e6,1.47e6,inactive
Rel (Relish),1,1.66e6,1.79e6,1.49e6,1.49e6,inactive
Gcna (Germ cell nuclear acidic peptidase),1,5.06e5,,7.80e5,,inactive
CG7084,1,1.56e6,1.60e6,1.17e6,1.23e6,inactive
CG3589,1,1.41e6,1.53e6,1.11e6,1.25e6,inactive
CG12355,1,1.38e6,1.56e6,1.26e6,1.33e6,inactive
p24-1 (p24-related-1),1,1.53e6,1.48e6,9.22e5,1.01e6,inactive
His4:CG33883 + His4:CG33889 + His4:CG33899 + 20 more,1,1.37e6,1.41e6,8.54e5,8.98e5,inactive
cnc (cap-n-collar),1,1.51e6,1.58e6,9.84e5,1.08e6,inactive
cnc (cap-n-collar),2,1.25e6,1.31e6,1.26e6,1.34e6,inactive
cnc (cap-n-collar),3,1.33e6,1.39e6,1.03e6,1.12e6,inactive
cnc (cap-n-collar),4,1.31e6,1.31e6,1.08e6,1.12e6,inactive
Magi,1,1.41e6,1.56e6,1.10e6,1.07e6,inactive
Magi,2,1.45e6,1.71e6,1.39e6,3.34e5,inactive
CG17739,1,1.34e6,1.45e6,1.14e6,1.21e6,inactive
CG7715,1,1.19e6,1.20e6,1.16e6,1.17e6,inactive
dl (dorsal),1,1.27e6,1.42e6,1.23e6,1.24e6,inactive
dl (dorsal),2,1.47e6,1.58e6,1.26e6,1.38e6,inactive
CG4375,1,1.72e6,1.74e6,1.05e6,1.21e6,inactive
CG2747,1,1.44e6,1.57e6,1.26e6,1.31e6,inactive
CG9399,1,1.46e6,1.50e6,1.24e6,1.33e6,inactive
CG34115,1,5.76e5,,8.44e5,,inactive
CG44836,1,1.41e6,1.38e6,1.23e6,1.30e6,inactive
knon (knotted onions),1,1.53e6,1.56e6,1.16e6,1.28e6,inactive
Or65b (Odorant receptor 65b),1,1.45e6,1.43e6,1.11e6,1.26e6,inactive
lili (lilipod),1,1.49e6,1.56e6,1.17e6,1.25e6,inactive
"foxo (forkhead box, sub-group O)",1,5.66e5,5.93e5,5.10e5,6.03e5,active
"foxo (forkhead box, sub-group O)",2,1.72e6,1.52e6,1.23e6,1.23e6,inactive
ppk17 (pickpocket 17),1,1.51e6,1.55e6,1.34e6,1.41e6,inactive
Gr64d + Gr64e,1,1.38e6,1.44e6,1.04e6,1.20e6,inactive
ttm2 (tiny tim 2),1,1.30e6,1.31e6,1.07e6,1.24e6,inactive
Vha44 (Vacuolar H[+] ATPase 44kD subunit),1,1.57e6,1.40e6,1.02e6,1.06e6,inactive
Vha44 (Vacuolar H[+] ATPase 44kD subunit),2,1.50e6,1.52e6,1.11e6,1.22e6,inactive
hiro (highroad),1,1.34e6,1.42e6,1.10e6,1.20e6,inactive
Phae2 (Phaedra 2),1,1.59e6,1.84e6,1.21e6,1.30e6,inactive
CG8245,1,1.63e6,1.69e6,1.24e6,1.27e6,inactive
MSBP (membrane steroid binding protein),1,6.13e5,,9.54e5,,inactive
CG13426,1,1.71e6,1.71e6,1.29e6,1.48e6,inactive
seq (sequoia),1,1.55e6,1.47e6,9.92e5,1.07e6,inactive
Cdc27 (Cell division cycle 27),1,1.24e6,1.34e6,7.05e5,7.36e5,active
dgt3 (dim gamma-tubulin 3),1,1.41e6,1.50e6,9.38e5,1.04e6,inactive
ihog (interference hedgehog),1,1.31e6,1.34e6,6.47e5,7.65e5,inactive
CG31266,1,1.44e6,1.64e6,1.37e6,1.44e6,inactive
CG14448,1,1.41e6,1.56e6,1.19e6,1.34e6,inactive
CG17192,1,1.72e6,1.74e6,1.05e6,1.22e6,inactive
Dyro (Dpt-YFP repressor by overexpression),1,1.41e6,1.31e6,1.18e6,1.26e6,inactive

6 entries from above, arranged by “S2R+ cell number, rep 2”, ascending:
Gene,dsRNA no.,"Kc cell number, rep 1","Kc cell number, rep 2","S2R+ cell number, rep 1","S2R+ cell number, rep 2",activity call
Cdc27 (Cell division cycle 27),1,1.24e6,1.34e6,7.05e5,7.36e5,active
ihog (interference hedgehog),1,1.31e6,1.34e6,6.47e5,7.65e5,inactive
dgt3 (dim gamma-tubulin 3),1,1.41e6,1.50e6,9.38e5,1.04e6,inactive
CG17192,1,1.72e6,1.74e6,1.05e6,1.22e6,inactive
CG14448,1,1.41e6,1.56e6,1.19e6,1.34e6,inactive
CG31266,1,1.44e6,1.64e6,1.37e6,1.44e6,inactive
